The other results are listed elsewhere or left out. Shown are side measurements of this screen, not its main read-out; they come without a call. Compounds called inactive in the main read-out are mostly missing here. Words in brackets tell the shape of the fitted curve; partial curves, single points and poor fits give uncertain potencies.
Assay: qHTS Assay for Modulators of Lamin A Splicing
Settings: HeLa LMNA splicing GFP/RFP minigene ratio, 48 h
In short: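 S3 HeLa stable clones carrying a lamin A-EGFP splicing minigene plus DsRed2 were seeded at 600 cells/well in Opti-MEM with 2% FBS, pin-dosed and incubated 48 h at 37°C. Acumen cytometry (488 nm) gave the GFP/RFP total-intensity ratio.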

[1] = measured here: GFP splicing reporter channel
[2] = measured here: RFP viability control channel

N=c1oc2c3c4c(cc2cc1C(=O)Nc1ccccc1)CCCN4CCC3
AC50 [1]: 5.01 µM [falling, full curve]
AC50 [2]: 6.31 µM [falling, full curve]

COc1ccc(C(=O)NC(=S)Nc2cccc(S(=O)(=O)N3CCOCC3)c2)cc1
AC50 [2]: 12.6 µM [rising, single point]

CCC(Oc1ccccc1)C(=O)NC1CCSC1=O (stereo not drawn)
AC50 [1]: 0.178 µM [rising, full curve, poor fit]

CCOC(=O)c1cc(-c2ccccc2)n(CCC(=O)Nc2cc(OCC)ccc2OCC)c1C
AC50 [1]: 0.0141 µM [rising, full curve]

COC(=O)c1ccccc1NC(=S)NC(NC(=O)COc1ccccc1)C(Cl)(Cl)Cl (stereo not drawn)
AC50 [2]: 17.8 µM [falling, partial curve, poor fit]

CCN(CC)S(=O)(=O)c1ccc(N2CCCCC2)c(NC(=O)/C=C/c2cc(OC)c(OC)c(OC)c2)c1
AC50 [2]: 3.55 µM [rising, full curve]

O=C(NCc1ccc2[nH]c3c(c2c1)CCCC3)c1ccc(S(=O)(=O)N2CCCC2)cc1
AC50 [1]: 12.6 µM [rising, single point]
AC50 [2]: 35.5 µM [rising, single point]

Cc1ccc(S(=O)(=O)N2CCN(c3nc4ccccc4nc3-n3nc(C)cc3C)CC2)cc1
AC50 [1]: 25.1 µM [falling, single point]

Nc1nonc1C(=O)NCCNCc1ccccc1OCc1ccccc1F
AC50 [2]: 15.8 µM [rising, single point]

Cc1ccc(S(=O)(=O)NC(C)C(c2cccs2)N2CCOCC2)cc1 (stereo not drawn)
AC50 [2]: 5.62 µM [rising, single point]

COc1ccccc1C(=O)OCc1cc(=O)n2nc(C3CCCCC3)sc2n1
AC50 [2]: 31.6 µM [rising, partial curve, poor fit]

OC[C@H]1O[C@@H](n2cnc3c(Nc4ccccc4)ncnc32)[C@H](O)[C@@H]1O
AC50 [2]: 0.0447 µM [rising, full curve, poor fit]

COc1cccc(C(=O)Oc2ccccc2/C=C\C(=O)c2cc3ccccc3o2)c1
AC50 [1]: 35.5 µM [falling, single point]
AC50 [2]: 35.5 µM [falling, single point]

CN(Cc1ccccc1NCC(=O)Nc1ccccc1C#N)C1CCCCC1
AC50 [1]: 0.282 µM [falling, full curve, poor fit]

CCc1ccc(CNCc2ccc(OCC(O)CN(C)Cc3ccccc3)cc2)nc1 (stereo not drawn)
AC50 [1]: 2.24 µM [falling, partial curve]
AC50 [2]: 0.447 µM [falling, full curve]

O=c1c2ccccc2nc2n1C(CSCc1ccc(Cl)cc1Cl)CS2 (stereo not drawn)
AC50 [1]: 2.82 µM [rising, full curve, poor fit]
AC50 [2]: 3.55 µM [rising, single point]

OCCNCCNCc1ccccc1OCc1ccccc1
AC50 [1]: 0.00447 µM [falling, full curve, poor fit]
AC50 [2]: 22.4 µM [falling, partial curve, poor fit]

CC(C)CC(=O)Nc1ccc(C(=O)COc2ccc(-c3nnco3)cc2)cc1
AC50 [1]: 7.94 µM [rising, partial curve, poor fit]

Brc1ccc(CSc2nnc(-c3cccnc3)o2)cc1
AC50 [1]: 0.0158 µM [falling, full curve, poor fit]
AC50 [2]: 0.0282 µM [falling, full curve, poor fit]

C/C(=C\c1ccc(C(=O)O)cc1)c1ccc2c(c1)C(C)(C)CCC2(C)C
AC50 [1]: 25.1 µM [falling, partial curve, poor fit]
AC50 [2]: 35.5 µM [falling, partial curve, poor fit]

Cc1ccc(NC(=O)c2cc(S(=O)(=O)NCCC3=CCCCC3)ccc2F)cc1C
AC50 [1]: 7.08 µM [falling, full curve, poor fit]

O=C(CSc1ccc(Cl)cc1)N1CCN(c2ccc([N+](=O)[O-])cc2Cl)CC1
AC50 [2]: 12.6 µM [rising, partial curve]

Clc1ccccc1-c1ccc(CN2CCN(c3ccccc3)CC2)o1
AC50 [2]: 35.5 µM [rising, single point]

O=C(NCc1ccccc1F)C1CCCN(C(=O)NC2CCCCC2)C1 (stereo not drawn)
AC50 [1]: 12.6 µM [rising, single point]
AC50 [2]: 31.6 µM [rising, single point]

COC(=O)c1cccc(NC(=S)NCCC2=CCCCC2)c1
AC50 [2]: 10 µM [falling, partial curve, poor fit]

C=CCn1c(SCC(=O)Nc2sccc2C(N)=O)nc2ccccc2c1=O
AC50 [1]: 10 µM [rising, partial curve]
AC50 [2]: 11.2 µM [rising, partial curve]

COc1ccc(Nc2sc(C(=O)c3ccccc3)c(N)c2C(=O)Nc2cc(C)ccc2C)c(OC)c1
AC50 [2]: 11.2 µM [rising, partial curve, poor fit]

CCOC(=O)c1sc2nc3c(SCCC(=O)O)cc(C(=O)c4cc(OC)ccc4O)cn3c(=O)c2c1C
AC50 [2]: 2.82 µM [rising, single point]

Nc1ccc(CCNc2ncnc3c2ncn3C2OC(CO)C(O)C2O)cc1 (stereo not drawn)
AC50 [2]: 6.31 µM [falling, partial curve, poor fit]

CCOc1cc(/C=N/NC(=O)c2nn(C)cc2Br)ccc1OCc1ccccc1
AC50 [1]: 3.16 µM [rising, single point]

COc1ccccc1N1CCN(C(=O)NC23CC4CC(CC(C4)C2)C3)CC1
AC50 [2]: 3.55 µM [falling, single point]

Cc1nn(Cc2ccc(Cl)cc2)c(C)c1NC(=O)c1ccc([N+](=O)[O-])cc1
AC50 [2]: 17.8 µM [rising, single point]

Cc1nn2c(=O)cc(COC(=O)c3ccc(NC(=O)COc4ccc(Cl)cc4)cc3)nc2s1
AC50 [1]: 2.82 µM [falling, single point]

C/C(=N\NC(=S)Nc1ccc(C(C)C)cc1)c1ccc2c(c1)OCO2
AC50 [1]: 8.91 µM [rising, partial curve]
AC50 [2]: 3.16 µM [rising, full curve, poor fit]

O=C(CSCc1ccc(Cl)cc1)Nc1ccc(S(=O)(=O)N2CCCCCC2)cc1
AC50 [2]: 17.8 µM [rising, partial curve]

CCOC(=O)CSC1=C(C#N)C(c2ccc(C)s2)CC(=O)N1 (stereo not drawn)
AC50 [2]: 15.8 µM [rising, partial curve, poor fit]

COc1cccc(C2Cc3ccccc3C(=O)O2)c1 (stereo not drawn)
AC50 [1]: 11.2 µM [rising, partial curve]
AC50 [2]: 7.94 µM [rising, partial curve]

COC(=O)[C@H](Cc1ccccc1)NC(=O)O[C@H]1C(=O)c2ccc(OC)cc2O[C@@H]1c1ccc2c(c1)OCO2
AC50 [1]: 3.98 µM [rising, single point]
AC50 [2]: 5.62 µM [rising, single point]

CCCCNC(=O)C1CCN(Cc2ccc(OCc3ccccc3)cc2)CC1
AC50 [2]: 14.1 µM [rising, partial curve]

N#Cc1nc(Cc2cccc3ccccc23)oc1NCc1ccc(F)cc1
AC50 [2]: 14.1 µM [rising, partial curve]

CCOC(=O)c1c(NC2=NS(=O)(=O)c3ccccc32)sc2c1CCCCC2
AC50 [1]: 8.91 µM [falling, partial curve]
AC50 [2]: 4.47 µM [falling, full curve, poor fit]

Cc1ccccc1C(=O)NNC(=S)NC(=O)c1cccnc1
AC50 [1]: 12.6 µM [rising, single point]
AC50 [2]: 20 µM [rising, single point]

COc1ccc(NC(=O)C2CCC(C(C)(C)C)CC2)cc1S(=O)(=O)N1CCCCC1 (stereo not drawn)
AC50 [2]: 8.91 µM [rising, partial curve]

Cc1cc(C(=O)NC(=S)Nc2ccccc2N2CCOCC2)ccc1[N+](=O)[O-]
AC50 [1]: 10 µM [rising, partial curve, poor fit]
AC50 [2]: 11.2 µM [rising, partial curve, poor fit]

Cc1cc(C)nc(NS(=O)(=O)c2ccc(NC(=O)Nc3ccccc3)cc2)n1
AC50 [2]: 5.62 µM [falling, partial curve]

CCc1ccc(-c2cc(C(=O)Nc3ccc(S(=O)(=O)NC(C)=O)cc3)c3ccccc3n2)cc1
AC50 [1]: 31.6 µM [rising, partial curve]

OC(CN1CCN(c2cccc(Cl)c2)CC1)C(c1ccccc1)c1ccccc1 (stereo not drawn)
AC50 [2]: 0.00501 µM [falling, full curve, poor fit]

COc1ccc(-c2nnc(SCC(=O)c3ccc(C)o3)o2)cc1
AC50 [1]: 17.8 µM [rising, single point]
AC50 [2]: 35.5 µM [rising, single point]

C=CCn1c2ccccc2c2nnc(SCC(=O)Nc3c(C)n(C)n(-c4ccccc4)c3=O)nc21
AC50 [1]: 35.5 µM [rising, single point]

Cc1ccc(-c2nc(COC(=O)c3c(C)noc3C)cs2)cc1
AC50 [2]: 7.94 µM [rising, partial curve]

O=C(CCCc1nc(-c2ccccc2)no1)Nc1cc(C(F)(F)F)cc(C(F)(F)F)c1
AC50 [1]: 35.5 µM [falling, single point]
AC50 [2]: 35.5 µM [falling, single point]

CCCC(=O)Nc1ccc2c(c1)c1ccccc1n2CC
AC50 [2]: 15.8 µM [rising, single point]

CCN(CC)S(=O)(=O)c1cccc(NC(=S)NC(=O)/C=C/c2ccc(S(=O)(=O)N3CCOCC3)cc2)c1
AC50 [2]: 31.6 µM [rising, single point]

C=CCn1c(Cc2cccs2)nnc1SCC(=O)Nc1ccc(C(=O)OCC)cc1
AC50 [1]: 14.1 µM [rising, single point]
AC50 [2]: 14.1 µM [rising, single point]

Source: PubChem BioAssay AID1487 (National Center for Advancing Translational Sciences (NCATS), 2009)
